Some of the results follow. Small differences around the control level are noise.

By UniProt entry, the sequences of proteins in these tests, tags left out. Where a name states a change or a piece, a line headed by the entry shows the natural chain unless it says otherwise.
UniProt Q9BRR8: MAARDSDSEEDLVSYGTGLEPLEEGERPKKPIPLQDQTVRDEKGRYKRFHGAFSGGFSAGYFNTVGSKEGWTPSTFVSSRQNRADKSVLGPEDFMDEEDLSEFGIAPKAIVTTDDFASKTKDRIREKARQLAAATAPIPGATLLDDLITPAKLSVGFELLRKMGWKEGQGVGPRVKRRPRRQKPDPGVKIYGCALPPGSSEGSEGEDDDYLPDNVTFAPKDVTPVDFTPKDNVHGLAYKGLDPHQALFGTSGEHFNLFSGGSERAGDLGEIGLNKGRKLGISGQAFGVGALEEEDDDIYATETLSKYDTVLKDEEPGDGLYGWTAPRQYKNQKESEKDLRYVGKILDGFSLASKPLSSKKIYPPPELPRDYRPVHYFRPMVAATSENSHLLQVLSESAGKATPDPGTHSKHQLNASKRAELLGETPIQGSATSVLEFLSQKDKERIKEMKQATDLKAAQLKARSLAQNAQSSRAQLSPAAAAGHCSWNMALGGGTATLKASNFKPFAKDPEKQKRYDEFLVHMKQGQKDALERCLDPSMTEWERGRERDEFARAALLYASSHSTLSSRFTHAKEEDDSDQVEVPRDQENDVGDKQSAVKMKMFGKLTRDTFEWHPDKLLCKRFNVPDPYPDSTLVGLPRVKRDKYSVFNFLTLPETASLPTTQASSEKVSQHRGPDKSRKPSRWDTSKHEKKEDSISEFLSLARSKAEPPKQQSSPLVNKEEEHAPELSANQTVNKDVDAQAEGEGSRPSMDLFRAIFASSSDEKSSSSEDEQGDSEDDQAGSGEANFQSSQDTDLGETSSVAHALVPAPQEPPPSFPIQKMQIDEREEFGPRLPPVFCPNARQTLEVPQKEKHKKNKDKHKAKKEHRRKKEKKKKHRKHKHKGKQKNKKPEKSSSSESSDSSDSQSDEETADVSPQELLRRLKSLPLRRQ
UniProt Q9BTF0: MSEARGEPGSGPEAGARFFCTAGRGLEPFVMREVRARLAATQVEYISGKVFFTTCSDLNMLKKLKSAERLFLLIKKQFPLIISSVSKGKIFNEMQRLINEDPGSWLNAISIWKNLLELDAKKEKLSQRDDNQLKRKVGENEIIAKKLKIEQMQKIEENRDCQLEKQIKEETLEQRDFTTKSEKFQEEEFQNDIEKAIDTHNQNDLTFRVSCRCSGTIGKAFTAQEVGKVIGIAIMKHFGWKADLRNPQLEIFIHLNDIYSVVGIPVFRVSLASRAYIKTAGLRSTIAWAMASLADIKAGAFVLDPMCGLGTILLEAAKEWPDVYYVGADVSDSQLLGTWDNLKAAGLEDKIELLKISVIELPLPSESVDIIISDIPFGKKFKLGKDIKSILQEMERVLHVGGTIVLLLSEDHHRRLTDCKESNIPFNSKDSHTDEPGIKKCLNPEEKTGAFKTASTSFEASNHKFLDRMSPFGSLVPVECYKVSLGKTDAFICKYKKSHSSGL
UniProt Q9BUI4: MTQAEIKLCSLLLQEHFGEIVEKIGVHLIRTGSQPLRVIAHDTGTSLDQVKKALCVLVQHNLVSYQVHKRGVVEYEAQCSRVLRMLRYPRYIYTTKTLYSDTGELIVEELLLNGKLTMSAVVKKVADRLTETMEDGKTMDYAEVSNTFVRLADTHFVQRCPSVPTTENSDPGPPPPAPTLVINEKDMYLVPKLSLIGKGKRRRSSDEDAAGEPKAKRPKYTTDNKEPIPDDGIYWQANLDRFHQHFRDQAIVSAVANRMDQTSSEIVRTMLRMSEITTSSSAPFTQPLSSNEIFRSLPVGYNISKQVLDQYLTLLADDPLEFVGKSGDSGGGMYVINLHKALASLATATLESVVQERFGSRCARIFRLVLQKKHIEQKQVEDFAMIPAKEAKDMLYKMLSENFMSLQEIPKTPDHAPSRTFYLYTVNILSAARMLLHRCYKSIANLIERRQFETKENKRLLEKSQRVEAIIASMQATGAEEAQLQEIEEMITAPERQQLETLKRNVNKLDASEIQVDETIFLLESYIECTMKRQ
UniProt Q9BQ89: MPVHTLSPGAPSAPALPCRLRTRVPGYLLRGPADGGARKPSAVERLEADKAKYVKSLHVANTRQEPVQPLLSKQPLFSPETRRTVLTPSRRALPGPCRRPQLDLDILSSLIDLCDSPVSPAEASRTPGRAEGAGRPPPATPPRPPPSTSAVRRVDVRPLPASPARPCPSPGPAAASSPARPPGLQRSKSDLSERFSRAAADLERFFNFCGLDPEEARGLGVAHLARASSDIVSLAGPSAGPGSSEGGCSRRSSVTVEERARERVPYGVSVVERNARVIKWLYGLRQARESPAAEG
UniProt Q99865, whole entry: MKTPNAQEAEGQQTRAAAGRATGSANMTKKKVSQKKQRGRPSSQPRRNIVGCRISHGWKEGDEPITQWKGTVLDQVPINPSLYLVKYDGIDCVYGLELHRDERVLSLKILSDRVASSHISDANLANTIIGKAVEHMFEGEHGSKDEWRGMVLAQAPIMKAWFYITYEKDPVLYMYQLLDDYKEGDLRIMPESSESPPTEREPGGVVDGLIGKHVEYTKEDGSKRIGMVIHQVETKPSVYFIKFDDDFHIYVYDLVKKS
UniProt Q9BSV6: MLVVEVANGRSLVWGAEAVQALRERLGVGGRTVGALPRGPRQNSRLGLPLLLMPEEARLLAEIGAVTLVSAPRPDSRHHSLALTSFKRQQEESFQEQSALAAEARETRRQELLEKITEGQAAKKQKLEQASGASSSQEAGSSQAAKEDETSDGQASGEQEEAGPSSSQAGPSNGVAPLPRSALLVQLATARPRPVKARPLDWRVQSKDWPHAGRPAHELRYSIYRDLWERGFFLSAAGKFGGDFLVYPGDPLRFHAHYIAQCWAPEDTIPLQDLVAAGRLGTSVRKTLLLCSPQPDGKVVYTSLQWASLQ
UniProt Q9BQA1, whole entry: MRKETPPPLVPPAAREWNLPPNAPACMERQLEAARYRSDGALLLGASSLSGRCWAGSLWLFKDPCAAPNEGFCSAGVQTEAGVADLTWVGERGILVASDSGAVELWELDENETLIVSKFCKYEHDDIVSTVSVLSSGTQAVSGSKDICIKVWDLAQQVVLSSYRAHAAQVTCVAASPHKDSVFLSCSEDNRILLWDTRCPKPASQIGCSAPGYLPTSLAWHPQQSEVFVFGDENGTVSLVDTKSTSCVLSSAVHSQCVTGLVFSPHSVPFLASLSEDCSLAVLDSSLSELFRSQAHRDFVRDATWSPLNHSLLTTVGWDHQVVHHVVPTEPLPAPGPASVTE
UniProt Q96SW2: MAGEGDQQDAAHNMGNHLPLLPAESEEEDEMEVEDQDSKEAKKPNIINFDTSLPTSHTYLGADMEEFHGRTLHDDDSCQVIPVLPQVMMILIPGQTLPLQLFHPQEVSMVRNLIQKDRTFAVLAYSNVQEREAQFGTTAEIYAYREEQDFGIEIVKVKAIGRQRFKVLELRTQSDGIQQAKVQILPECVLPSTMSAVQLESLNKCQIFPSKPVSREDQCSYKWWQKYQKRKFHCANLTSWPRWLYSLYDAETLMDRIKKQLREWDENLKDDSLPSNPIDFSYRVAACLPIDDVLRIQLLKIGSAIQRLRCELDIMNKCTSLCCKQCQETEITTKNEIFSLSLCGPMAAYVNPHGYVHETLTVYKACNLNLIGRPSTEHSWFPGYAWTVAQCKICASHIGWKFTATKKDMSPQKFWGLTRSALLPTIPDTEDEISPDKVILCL

For eight targets, log2 fold change results are on record in the supplement of paper PMC12819154, “High-throughput peptide-centric local stability assay extends protein–ligand identification to membrane proteins, tissues and bacteria” (Nature Structural & Molecular Biology, 2025).

Compound in the experiment: Cc1nc(Nc2ncc(C(=O)Nc3c(C)cccc3Cl)s2)cc(N2CCN(CCO)CC2)n1 [dasatinib]
Put plainly: log2 fold change of tryptic peptide abundance, ligand vs vehicle (limited proteolysis) (log2 ratio); higher = more trypsin-susceptible (destabilized). To be noted: ligand concentration: 5 uM; sample: K562 cleared lysate.
As to “GPATCH1 (peptide sequence: QKPDPGVK, peptide start residue: 182) (UniProt Q9BRR8)”, the log2 fold change is -0.336.
Under “THUMPD2 (peptide sequence: SILQEMER, peptide start residue: 389) (UniProt Q9BTF0)” stands -0.26; under “POLR3C (peptide sequence: LTETMEDGK, peptide start residue: 129) (UniProt Q9BUI4)”, 0.488.
The result for “FAM110A (peptide sequence: PVHTLSPGAPSAPALPCR, peptide start residue: 2) (UniProt Q9BQ89)” reads 0.466.
The result for “UniProt Q99865 (peptide sequence: RNIVGCR, peptide start residue: 51)” reads 0.432.
For “TSEN34 (peptide sequence: HHSLALTSFKR, peptide start residue: 78) (UniProt Q9BSV6)”, the log2 fold change is -0.349.
Under “WDR77 (peptide sequence: ILLWDTR, peptide start residue: 192) (UniProt Q9BQA1)” stands -0.246; under “CRBN (peptide sequence: TQSDGIQQAK, peptide start residue: 172) (UniProt Q96SW2)”, -0.145.
